{"sequences": {"note": "Sequences of proteins named here, by UniProt entry; tags and fusion partners are left off. A change or cut given only in a name is not applied to a line headed by its entry.", "UniProt Q04206": "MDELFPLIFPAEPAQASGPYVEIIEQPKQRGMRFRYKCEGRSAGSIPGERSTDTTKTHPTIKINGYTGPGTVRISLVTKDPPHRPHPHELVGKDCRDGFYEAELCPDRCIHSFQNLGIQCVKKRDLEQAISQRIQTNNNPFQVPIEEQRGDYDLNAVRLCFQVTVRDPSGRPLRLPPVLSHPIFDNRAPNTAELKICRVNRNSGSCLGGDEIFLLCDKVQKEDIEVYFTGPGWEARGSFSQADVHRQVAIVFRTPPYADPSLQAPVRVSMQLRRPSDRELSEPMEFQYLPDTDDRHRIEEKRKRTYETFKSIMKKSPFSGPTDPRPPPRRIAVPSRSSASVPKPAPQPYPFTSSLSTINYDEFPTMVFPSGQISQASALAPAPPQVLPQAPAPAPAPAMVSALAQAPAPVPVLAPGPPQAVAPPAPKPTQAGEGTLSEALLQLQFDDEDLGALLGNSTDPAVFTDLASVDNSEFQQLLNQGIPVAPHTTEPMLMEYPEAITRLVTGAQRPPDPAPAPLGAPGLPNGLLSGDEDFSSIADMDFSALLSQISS", "UniProt P04386": "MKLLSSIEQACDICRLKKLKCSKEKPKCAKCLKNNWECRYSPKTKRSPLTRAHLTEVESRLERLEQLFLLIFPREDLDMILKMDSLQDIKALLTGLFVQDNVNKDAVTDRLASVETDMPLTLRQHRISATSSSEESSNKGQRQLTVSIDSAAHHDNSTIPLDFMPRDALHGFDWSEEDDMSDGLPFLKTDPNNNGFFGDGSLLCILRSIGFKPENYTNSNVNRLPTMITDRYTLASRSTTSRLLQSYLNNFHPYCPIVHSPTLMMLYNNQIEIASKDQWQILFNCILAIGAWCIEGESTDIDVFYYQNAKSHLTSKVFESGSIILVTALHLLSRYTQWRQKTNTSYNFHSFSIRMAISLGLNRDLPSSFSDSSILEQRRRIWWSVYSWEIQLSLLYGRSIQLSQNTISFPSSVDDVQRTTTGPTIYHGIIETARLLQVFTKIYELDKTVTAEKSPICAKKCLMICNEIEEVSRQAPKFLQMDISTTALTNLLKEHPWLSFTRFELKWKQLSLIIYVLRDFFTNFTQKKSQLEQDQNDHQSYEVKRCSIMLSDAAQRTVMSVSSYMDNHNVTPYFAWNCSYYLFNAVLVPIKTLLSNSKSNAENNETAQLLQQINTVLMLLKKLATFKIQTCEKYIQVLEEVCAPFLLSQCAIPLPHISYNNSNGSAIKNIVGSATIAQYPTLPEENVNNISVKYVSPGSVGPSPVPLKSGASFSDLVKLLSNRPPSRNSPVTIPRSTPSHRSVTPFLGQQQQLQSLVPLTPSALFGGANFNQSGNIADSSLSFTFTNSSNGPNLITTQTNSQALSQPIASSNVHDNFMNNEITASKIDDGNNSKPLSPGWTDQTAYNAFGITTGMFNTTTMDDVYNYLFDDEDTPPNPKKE"}, "source": "patent US20030148396A1", "key": {"[1]": {"target": "35S-methionine-labeled p65 (UniProt Q04206)", "test": "in vitro binding with bacterially expressed fusion proteins"}, "[2]": {"target": "35S-methionine-labeled p65 (UniProt Q04206)", "test": "GST pull-down on glutathione-sepharose beads, autoradiography of 35S-labeled p65"}, "[3]": {"target": "T1, GAL4 DNA-binding domain fused to human p65 (amino acids 176-405), from pAS2-1-p65 (176-405) (yeast; human) (UniProt P04386+Q04206)", "test": "yeast two-hybrid screen with p65 (176-405) bait"}, "p65 in transfected cells": {"target": "p65 in transfected cells (UniProt Q04206)", "test": "co-immunoprecipitation from transfected 293T cells, Western blot with anti-p65"}, "[4]": {"target": "T1, GAL4 DNA-binding domain fused to human p65 (amino acids 176-405), from pAS2-1-p65 (176-405) (yeast; human)", "test": "restated result of the earlier binding experiments"}, "[5]": {"target": "T1, GAL4 DNA-binding domain fused to human p65 (amino acids 176-405), from pAS2-1-p65 (176-405) (yeast; human)", "test": "yeast two-hybrid screen with p65 (176-405) bait, β-galactosidase and histidine selection"}}, "note": "No constants are given. Whether binding was seen depends on the method and setting. For some assays here: Binding seen in cells or lysates may run through a third protein. Some binding calls cover weakened binding; strength is not graded here. For some assays here: Where a sequence is shown, tags or fusion partners need not be part of it."}
{"binder": "GST-RAI fusion protein (protein, not shown: a dimerising Fc or GST) MWMKDPVARPLSPTRLQPALPPEAQSVPELEEVARVLAEIPRPLKRRGSMEQAPAVALPPTHKKQYQQIISRLFHRHGGPGPGGRSQSCPPSLRDLRPGQGPLLLPHQLPFHRPAPSQSSPPEQPQSMEMRSVLRKAGSPRKARRARLNPLVLLLDAALTGELEVVQQAVKEMNDPSQPNEEGITALHNAICGANYSIVDFLITAGANVNSPDSHGWTPLHCAASCNDTVICMALVQHGAAIFATTLSDGATAFEKCDPYREGYADCATYLADVEQSMGLMNSGAVYALWDYSAEFGDELSFREGESVTVLRRDGPEETDWWWAALHGQEGYVPRNYFGLFPRVKPQRSKV", "values": [{"measurement": "binding", "setting": "[1]", "value": "binds"}, {"measurement": "binding", "setting": "[2]", "value": "binds"}]}
{"binder": "53BP2 (two-hybrid library clones in pACT2) (protein, human, UniProt Q13625 600-1128, looked up, not shown: large carriers) KPQTVAASSIYSMYTQQQAPGKNFQQAVQSALTKTHTRGPHFSSVYGKPVIAAAQNQQQHPENIYSNSQGKPGSPEPETEPVSSVQENHENERIPRPLSPTKLLPFLSNPYRNQSDADLEALRKKLSNAPRPLKKRSSITEPEGPNGPNIQKLLYQRTTIAAMETISVPSYPSKSASVTASSESPVEIQNPYLHVEPEKEVVSLVPESLSPEDVGNASTENSDMPAPSPGLDYEPEGVPDNSPNLQNNPEEPNPEAPHVLDVYLEEYPPYPPPPYPSGEPEGPGEDSVSMRPPEITGQVSLPPGKRTNLRKTGSERIAHGMRVKFNPLALLLDSSLEGEFDLVQRIIYEVDDPSLPNDEGITALHNAVCAGHTEIVKFLVQFGVNVNAADSDGWTPLHCAASCNNVQVCKFLVESGAAVFAMTYSDMQTAADKCEEMEEGYTQCSQFLYGVQEKMGIMNKGVIYALWDYEPQNDDELPMKEGDCMTIIHREDEDEIEWWWARLNDKEGYVPRNLLGLYPRIKPRQRSLA", "values": [{"measurement": "binding", "setting": "[3]", "value": "binds"}]}
{"binder": "FLAG-RAI (full-length RAI with FLAG epitope tag, from pFLAG-CMV-RAI) (protein, not shown: small tags and cut ends) MWMKDPVARPLSPTRLQPALPPEAQSVPELEEVARVLAEIPRPLKRRGSMEQAPAVALPPTHKKQYQQIISRLFHRHGGPGPGGRSQSCPPSLRDLRPGQGPLLLPHQLPFHRPAPSQSSPPEQPQSMEMRSVLRKAGSPRKARRARLNPLVLLLDAALTGELEVVQQAVKEMNDPSQPNEEGITALHNAICGANYSIVDFLITAGANVNSPDSHGWTPLHCAASCNDTVICMALVQHGAAIFATTLSDGATAFEKCDPYREGYADCATYLADVEQSMGLMNSGAVYALWDYSAEFGDELSFREGESVTVLRRDGPEETDWWWAALHGQEGYVPRNYFGLFPRVKPQRSKV", "values": [{"measurement": "binding", "setting": "p65 in transfected cells", "value": "binds"}]}
{"binder": "RAI partial-length clones in GAL4 transcriptional activation domain vector pACT2 (protein, not shown: large carriers) MWMKDPVARPLSPTRLQPALPPEAQSVPELEEVARVLAEIPRPLKRRGSMEQAPAVALPPTHKKQYQQIISRLFHRHGGPGPGGRSQSCPPSLRDLRPGQGPLLLPHQLPFHRPAPSQSSPPEQPQSMEMRSVLRKAGSPRKARRARLNPLVLLLDAALTGELEVVQQAVKEMNDPSQPNEEGITALHNAICGANYSIVDFLITAGANVNSPDSHGWTPLHCAASCNDTVICMALVQHGAAIFATTLSDGATAFEKCDPYREGYADCATYLADVEQSMGLMNSGAVYALWDYSAEFGDELSFREGESVTVLRRDGPEETDWWWAALHGQEGYVPRNYFGLFPRVKPQRSKV", "values": [{"measurement": "binding", "setting": "[4]", "value": "binds"}, {"measurement": "binding", "setting": "[5]", "value": "binds"}]}
{"binder": "IκB-β/Trip9 (two-hybrid library clones in pACT2) (protein, human, UniProt Q15653 1-356, looked up, not shown: large carriers) MAGVACLGKAADADEWCDSGLGSLGPDAAAPGGPGLGAELGPGLSWAPLVFGYVTEDGDTALHLAVIHQHEPFLDFLLGFSAGTEYMDLQNDLGQTALHLAAILGETSTVEKLYAAGAGLCVAERRGHTALHLACRVGAHACARALLQPRPRRPREAPDTYLAQGPDRTPDTNHTPVALYPDSDLEKEEEESEEDWKLQLEAENYEGHTPLHVAVIHKDVEMVRLLRDAGADLDKPEPTCGRSPLHLAVEAQAADVLELLLRAGANPAARMYGGRTPLGSAMLRPNPILARLLRAHGAPEPEGEDEKSGPCSSSSDSDSGDEGDEYDDIVVHSSRSQTRLPPTPASKPLPDDPRPV", "values": [{"measurement": "binding", "setting": "[3]", "value": "binds"}]}
{"binder": "c-Rel (two-hybrid library clone in pACT2) (protein, human, UniProt Q04864 1-619, looked up, not shown: large carriers) MASGAYNPYIEIIEQPRQRGMRFRYKCEGRSAGSIPGEHSTDNNRTYPSIQIMNYYGKGKVRITLVTKNDPYKPHPHDLVGKDCRDGYYEAEFGQERRPLFFQNLGIRCVKKKEVKEAIITRIKAGINPFNVPEKQLNDIEDCDLNVVRLCFQVFLPDEHGNLTTALPPVVSNPIYDNRAPNTAELRICRVNKNCGSVRGGDEIFLLCDKVQKDDIEVRFVLNDWEAKGIFSQADVHRQVAIVFKTPPYCKAITEPVTVKMQLRRPSDQEVSESMDFRYLPDEKDTYGNKAKKQKTTLLFQKLCQDHVETGFRHVDQDGLELLTSGDPPTLASQSAGITVNFPERPRPGLLGSIGEGRYFKKEPNLFSHDAVVREMPTGVSSQAESYYPSPGPISSGLSHHASMAPLPSSSWSSVAHPTPRSGNTNPLSSFSTRTLPSNSQGIPPFLRIPVGNDLNASNACIYNNADDIVGMEASSMPSADLYGISDPNMLSNCSVNMMTTSSDSMGETDNPRLLSMNLENPSCNSVLDPRDLRQLHQMSSSSMSAGANSNTTVFVSQSDAFEGSDFSCADNSMINESGPSNSTNPNSHGFVQDSQYSGIGSMQNEQLSDSFPYEFFQV", "values": [{"measurement": "binding", "setting": "[3]", "value": "binds"}]}
